Some of the results follow. Some of these compounds have results that are not shown, active ones among them.
Test: inhibitors of GR-EGFP nuclear translocation, primary screen, dynein cargo transport inhibitor project, imaging, high-content, 3617.4 mouse cells (AID 1381)
Conditions: stimulated with dexamethasone, 1 µM
[1] = measured here: cell count per field, at 20 µM
[2] = measured here: cytoplasmic GR-EGFP intensity, at 20 µM, stronger effect = higher value
[3] = measured here: nuclear GR-EGFP intensity, at 20 µM, stronger effect = lower value

| SMILES | z-score [1] | z-score [2] | z-score [3] | z-score (measured here: cell count per field, at 50 µM) | z-score (measured here: cytoplasmic GR-EGFP intensity, at 50 µM, stronger effect = higher value) | z-score (measured here: nuclear GR-EGFP intensity, at 50 µM, stronger effect = lower value) |
| --- | --- | --- | --- | --- | --- | --- |
| O=C(NCC1(N2CCCCC2)CCCCC1)c1cc([N+](=O)[O-])ccc1Cl | 0.212 | -0.103 | -0.496 |  |  |  |
| CC(C)N1C(=O)CC2(CCN(CCOC(=O)C(O)(c3ccccc3)c3ccccc3)CC2)C1=O | 0.375 | -0.219 | -0.115 |  |  |  |
| CCN(CC)CC(C)C(C)OC(=O)C(O)(c1ccccc1)c1ccccc1 (stereo not drawn) | 0.829 | -0.176 | -0.114 |  |  |  |
| Cc1ccccc1C(=O)NCC1(N2CCCCC2)CCCCC1 | -1.37 | -0.254 | 0.13 |  |  |  |
| CN(C)C1CCCC1OC(=O)C(O)(c1ccccc1)c1ccccc1 (stereo not drawn) | -0.64 | -0.168 | 0.228 |  |  |  |
| C=CCN1CCN(CCOC(=O)C(O)(c2ccccc2)c2ccccc2)CC1 | -0.42 | -0.164 | 0.526 |  |  |  |
| CCN1CCCC(OC(=O)C2(O)c3ccccc3C=Cc3ccccc32)C1 (stereo not drawn) | -0.541 | -0.202 | -0.111 |  |  |  |
| COc1cccc(C(=O)NCC2(N3CCCCC3)CCCCC2)c1 | -0.0786 | -0.373 | 0.112 |  |  |  |
| O=C(OC1CN2CCC1CC2)C(CO)(c1ccccc1)c1ccccc1 (stereo not drawn) |  |  |  | -0.372 | -0.229 | -0.783 |
| COc1ccc(Br)c(C(=O)NCC2(N3CCCCC3)CCCCC2)c1 | 0.578 | -0.163 | -0.449 |  |  |  |
| CN(C)c1cccc(C(=O)NCC2(N(C)C)CCCCC2)c1 | 0.591 | -0.402 | 0.0187 |  |  |  |

Source: PubChem BioAssay AID1381 (University of Pittsburgh Molecular Library Screening Center, 2008)
